Measurements: the supplement of paper PMC8728848
This is one part of the list.

How the values were obtained:
Test in all cases: glycan array binding signal (z-score within array); higher = stronger binding
Conditions in all cases: glycan notation: IUPAC condensed, linker removed
[1] = target: Neu5Ac(a2-3)Gal(b1-4)GlcNAc(b1-6)GalNAc
Procedure, shortened: (§1)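 Columns mapping to the same glycan were averaged after glycan names were converted to IUPAC-condensed notation. The data come from 3228 arrays in the Consortium for Functional Glycomics database, limited to those with an available protein sequence. Binding is reported as a within-array Z-score averaged across arrays of one protein sequence and across linkers.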

[2] = target: Neu5Ac(a2-3)Gal(b1-4)GlcNAc(b1-6)[Gal(b1-3)]GalNAc
Procedure, shortened: as §1

[3] = target: Neu5Ac(a2-3)Gal(b1-4)GlcNAc(b1-6)[Neu5Ac(a2-3)Gal(b1-3)]GalNAc
Procedure, shortened: as §1

[4] = target: Neu5Ac(a2-3)Gal(b1-4)GlcNAc6S
Procedure, shortened: as §1

[5] = target: Neu5Ac(a2-3)Gal(b1-4)[Fuc(a1-3)]GlcNAc
Procedure, shortened: as §1

[6] = target: Neu5Ac(a2-3)Gal(b1-4)[Fuc(a1-3)]GlcNAc(b1-2)Man
Procedure, shortened: as §1

[7] = target: Neu5Ac(a2-3)Gal(b1-4)[Fuc(a1-3)]GlcNAc(b1-3)Gal
Procedure, shortened: as §1

[8] = target: Neu5Ac(a2-3)Gal(b1-4)[Fuc(a1-3)]GlcNAc(b1-3)Gal(b1-4)GlcNAc
Procedure, shortened: as §1

[9] = target: Neu5Ac(a2-3)Gal(b1-4)[Fuc(a1-3)]GlcNAc(b1-3)Gal(b1-4)[Fuc(a1-3)]GlcNAc(b1-3)Gal(b1-4)[Fuc(a1-3)]GlcNAc
Procedure, shortened: as §1

[10] = target: Neu5Ac(a2-3)Gal(b1-4)[Fuc(a1-3)]GlcNAc(b1-3)GalNAc
Procedure, shortened: as §1

[11] = target: Neu5Ac(a2-3)Gal(b1-4)[Fuc(a1-3)]GlcNAc(b1-6)[Gal(b1-3)]GalNAc
Procedure, shortened: as §1

[12] = target: Neu5Ac(a2-3)Gal(b1-4)[Fuc(a1-3)]GlcNAc(b1-6)[Neu5Ac(a2-3)Gal(b1-3)]GalNAc
Procedure, shortened: as §1

[13] = target: Neu5Ac(a2-3)Gal(b1-4)[Fuc(a1-3)]GlcNAc6S
Procedure, shortened: as §1

[14] = target: Neu5Ac(a2-3)Gal6S(b1-4)GlcNAc
Procedure, shortened: as §1

[15] = target: Neu5Ac(a2-3)Gal6S(b1-4)[Fuc(a1-3)]GlcNAc
Procedure, shortened: as §1

[16] = target: Neu5Ac(a2-3)GalNAc
Procedure, shortened: as §1

[17] = target: Neu5Ac(a2-3)GalNAc(b1-4)GlcNAc
Procedure, shortened: as §1

[18] = target: Neu5Ac(a2-3)[GalNAc(b1-4)]Gal(b1-4)Glc
Procedure, shortened: as §1

[19] = target: Neu5Ac(a2-3)[GalNAc(b1-4)]Gal(b1-4)GlcNAc
Procedure, shortened: as §1

[20] = target: Neu5Ac(a2-3)[GalNAc(b1-4)]Gal(b1-4)GlcNAc(b1-3)GalNAc
Procedure, shortened: as §1

[21] = target: Neu5Ac(a2-3)[Neu5Ac(a2-6)]GalNAc
Procedure, shortened: as §1

[22] = target: Neu5Ac(a2-6)Gal
Procedure, shortened: as §1

[23] = target: Neu5Ac(a2-6)Gal(b1-3)GlcNAc(b1-3)[Gal(b1-4)GlcNAc(b1-6)]Gal(b1-4)Glc
Procedure, shortened: as §1

[24] = target: Neu5Ac(a2-6)Gal(b1-4)Glc
Procedure, shortened: as §1

[25] = target: Neu5Ac(a2-6)Gal(b1-4)GlcNAc
Procedure, shortened: as §1

[26] = target: Neu5Ac(a2-6)Gal(b1-4)GlcNAc(b1-2)Man
Procedure, shortened: as §1

[27] = target: Neu5Ac(a2-6)Gal(b1-4)GlcNAc(b1-2)Man(a1-3)Man(b1-4)GlcNAc(b1-4)GlcNAc
Procedure, shortened: as §1

[28] = target: Neu5Ac(a2-6)Gal(b1-4)GlcNAc(b1-2)Man(a1-3)[Gal(b1-4)GlcNAc(b1-2)Man(a1-6)]Man(b1-4)GlcNAc(b1-4)GlcNAc
Procedure, shortened: as §1

[29] = target: Neu5Ac(a2-6)Gal(b1-4)GlcNAc(b1-2)Man(a1-3)[GlcNAc(b1-2)Man(a1-6)]Man(b1-4)GlcNAc(b1-4)GlcNAc
Procedure, shortened: as §1

[30] = target: Neu5Ac(a2-6)Gal(b1-4)GlcNAc(b1-2)Man(a1-3)[GlcNAc(b1-4)][Neu5Ac(a2-6)Gal(b1-4)GlcNAc(b1-2)Man(a1-6)]Man(b1-4)GlcNAc(b1-4)GlcNAc
Procedure, shortened: as §1

[31] = target: Neu5Ac(a2-6)Gal(b1-4)GlcNAc(b1-2)Man(a1-3)[Man(a1-6)]Man(b1-4)GlcNAc(b1-4)GlcNAc
Procedure, shortened: as §1

[32] = target: Neu5Ac(a2-6)Gal(b1-4)GlcNAc(b1-2)Man(a1-3)[Neu5Ac(a2-3)Gal(b1-4)GlcNAc(b1-2)Man(a1-6)]Man(b1-4)GlcNAc(b1-4)GlcNAc
Procedure, shortened: as §1

[33] = target: Neu5Ac(a2-6)Gal(b1-4)GlcNAc(b1-2)Man(a1-3)[Neu5Ac(a2-6)Gal(b1-4)GlcNAc(b1-2)Man(a1-6)]Man(b1-4)GlcNAc(b1-4)GlcNAc
Procedure, shortened: as §1

[34] = target: Neu5Ac(a2-6)Gal(b1-4)GlcNAc(b1-2)Man(a1-3)[Neu5Ac(a2-6)Gal(b1-4)GlcNAc(b1-2)Man(a1-6)]Man(b1-4)GlcNAc(b1-4)[Fuc(a1-6)]GlcNAc
Procedure, shortened: as §1

[35] = target: Neu5Ac(a2-6)Gal(b1-4)GlcNAc(b1-2)Man(a1-6)Man(b1-4)GlcNAc(b1-4)GlcNAc
Procedure, shortened: as §1

[36] = target: Neu5Ac(a2-6)Gal(b1-4)GlcNAc(b1-2)Man(a1-6)[Gal(b1-4)GlcNAc(b1-2)Man(a1-3)]Man(b1-4)GlcNAc(b1-4)GlcNAc
Procedure, shortened: as §1

[37] = target: Neu5Ac(a2-6)Gal(b1-4)GlcNAc(b1-2)Man(a1-6)[GlcNAc(b1-2)Man(a1-3)]Man(b1-4)GlcNAc(b1-4)GlcNAc
Procedure, shortened: as §1

[38] = target: Neu5Ac(a2-6)Gal(b1-4)GlcNAc(b1-2)Man(a1-6)[Man(a1-3)]Man(b1-4)GlcNAc(b1-4)GlcNAc
Procedure, shortened: as §1

[39] = target: Neu5Ac(a2-6)Gal(b1-4)GlcNAc(b1-2)[Neu5Ac(a2-6)Gal(b1-4)GlcNAc(b1-4)]Man(a1-3)[GlcNAc(b1-4)][Neu5Ac(a2-6)Gal(b1-4)GlcNAc(b1-2)[Neu5Ac(a2-6)Gal(b1-4)GlcNAc(b1-6)]Man(a1-6)]Man(b1-4)GlcNAc(b1-4)GlcNAc
Procedure, shortened: as §1

[40] = target: Neu5Ac(a2-6)Gal(b1-4)GlcNAc(b1-2)[Neu5Ac(a2-6)Gal(b1-4)GlcNAc(b1-4)]Man(a1-3)[GlcNAc(b1-4)][Neu5Ac(a2-6)Gal(b1-4)GlcNAc(b1-4)Man(a1-6)]Man(b1-4)GlcNAc(b1-4)GlcNAc
Procedure, shortened: as §1

[41] = target: Neu5Ac(a2-6)Gal(b1-4)GlcNAc(b1-2)[Neu5Ac(a2-6)Gal(b1-4)GlcNAc(b1-6)]Man(a1-6)[Neu5Ac(a2-6)Gal(b1-4)GlcNAc(b1-2)Man(a1-3)][GlcNAc(b1-4)]Man(b1-4)GlcNAc(b1-4)GlcNAc
Procedure, shortened: as §1

[42] = target: Neu5Ac(a2-6)Gal(b1-4)GlcNAc(b1-3)Gal(b1-3)GlcNAc
Procedure, shortened: as §1

[43] = target: Neu5Ac(a2-6)Gal(b1-4)GlcNAc(b1-3)Gal(b1-4)GlcNAc
Procedure, shortened: as §1

[44] = target: Neu5Ac(a2-6)Gal(b1-4)GlcNAc(b1-3)Gal(b1-4)GlcNAc(b1-2)Man(a1-3)[Neu5Ac(a2-6)Gal(b1-4)GlcNAc(b1-3)Gal(b1-4)GlcNAc(b1-2)Man(a1-6)]GalNAc
Procedure, shortened: as §1

[45] = target: Neu5Ac(a2-6)Gal(b1-4)GlcNAc(b1-3)Gal(b1-4)GlcNAc(b1-3)Gal(b1-4)GlcNAc
Procedure, shortened: as §1

B1: Vd7LysM (Verticillium dahliae) (protein)
chain: RRGPEPKYPPAAGTSSYCSYWVDYEGDKSCSRVLEDNVVVLKDFARWNPTVGADCSGIKAGNSYCVEAFGEPEPIEVTTTTRAATTTTQPTATTTTFANGIATPQPTQSGMVTNCNKFHWIAEGVSCSQVISFQKITLADFVKWNPSVKSDCSGMWAGVNVCVGVVGSSTDTAKPTTTAPSNGVVTPQPTQPSMVTNCNKFHWIAKGVTCQQVISYQKISLADFVKWNPSVLSDCSGMWAEVQVCVGVIGSTPTTLATTTTTAGNGVSTPLPTQPGMVTNCAKFHWVAKGVTCNQIYSFQKITLEQFVSYNPTVKSDCSGMQAEVQVCVGLIAGTTPTTTRPPTTTAPGNGVSTPQPTQPGMVTNCAKFHWVAKGVTCNQIYSFQKITLEQFVSFNPTVKSDCTGMQAEVNVCVGLIGGNPTPTQTGNGIATPTPIQPGMVSNCKKFHWIAQGVTCQQVISFQKITLADFVKWNTGVGSDCRTMWAETNVCVGV
- glycan array binding signal (z-score) [1]: -0.583
- glycan array binding signal (z-score) [2]: -1.19
- glycan array binding signal (z-score) [3]: 0.699
- glycan array binding signal (z-score) [4]: -0.253
- glycan array binding signal (z-score) [5]: 0.307
- glycan array binding signal (z-score) [6]: -0.307
- glycan array binding signal (z-score) [7]: -1.44
- glycan array binding signal (z-score) [8]: 0.427
- glycan array binding signal (z-score) [9]: -0.577
- glycan array binding signal (z-score) [10]: 1.12
- glycan array binding signal (z-score) [11]: 0.347
- glycan array binding signal (z-score) [12]: 1.41
- glycan array binding signal (z-score) [13]: -0.942
- glycan array binding signal (z-score) [14]: -0.911
- glycan array binding signal (z-score) [15]: -0.384
- glycan array binding signal (z-score) [16]: -0.824
- glycan array binding signal (z-score) [17]: -0.631
- glycan array binding signal (z-score) [18]: -0.671
- glycan array binding signal (z-score) [19]: -0.069
- glycan array binding signal (z-score) [20]: -0.641
- glycan array binding signal (z-score) [21]: -1.03
- glycan array binding signal (z-score) [22]: 0.198
- glycan array binding signal (z-score) [23]: -0.706
- glycan array binding signal (z-score) [24]: -0.668
- glycan array binding signal (z-score) [25]: -0.527
- glycan array binding signal (z-score) [26]: -0.848
- glycan array binding signal (z-score) [27]: 0.363
- glycan array binding signal (z-score) [28]: 0.214
- glycan array binding signal (z-score) [29]: -0.209
- glycan array binding signal (z-score) [30]: -0.115
- glycan array binding signal (z-score) [31]: 2.4
- glycan array binding signal (z-score) [32]: 0.213
- glycan array binding signal (z-score) [33]: 0.121
- glycan array binding signal (z-score) [34]: 0.236
- glycan array binding signal (z-score) [35]: -0.657
- glycan array binding signal (z-score) [36]: -0.667
- glycan array binding signal (z-score) [37]: -1.3
- glycan array binding signal (z-score) [38]: -0.481
- glycan array binding signal (z-score) [39]: -0.212
- glycan array binding signal (z-score) [40]: -0.785
- glycan array binding signal (z-score) [41]: -1.31
- glycan array binding signal (z-score) [42]: -0.033
- glycan array binding signal (z-score) [43]: -0.403
- glycan array binding signal (z-score) [44]: 2.01
- glycan array binding signal (z-score) [45]: 0.068
